The list shows a part of the results. Single values are uncertain, as repeats are few or missing.
Test system: Saccharomyces cerevisiae BY4743
Assay: growth (OD600) relative to untreated control; higher = less growth inhibition
Details: compound concentration: 133 uM; 20 h
Experimental: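 NMCCC compounds (133 uM, no IPBC) tested alone against Saccharomyces cerevisiae BY4743 in YPD, 96-well plates, starting OD600 ~0.1. Growth was read as OD600 at 20 h and expressed as % of the untreated control. Single pass.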

SMILES	growth
COc1cc(NCC(=O)N2CCC(C)Sc3ccccc32)c(OC)cc1Cl (stereo not given)	104%
CCOc1ccccc1-n1nnnc1SCC(=O)NC(=O)Cc1ccccc1	95.2%
COC(=O)c1cc(COC(=O)C2(c3ccccc3F)CCCC2)oc1C	100%
CCOC(=O)N1CCC(NC(=O)c2cc3cc(Cl)ccc3[nH]2)CC1	85.4%
CC(=O)c1c(C)[nH]c(C(=O)C(C)N2CCC(NS(C)(=O)=O)CC2)c1C (stereo not given)	117%
CCc1ccc(N2C(=O)CN(S(C)(=O)=O)CC2(C)C(=O)NCc2ccccc2)cc1 (stereo not given)	103%
CN1CCc2nc(SCc3cccc(C(F)(F)F)c3)c(C#N)cc2C1	106%
Cc1nn(CC(=O)Nc2ccccc2C(F)(F)F)c2ccccc12	110%
CCc1cc2c(SC(C(N)=O)c3ccc(F)cc3)ncnc2s1 (stereo not given)	95.1%
CC(C)(C)C(O)CN\1C2=CC=CC=C2N3CC/N=C13 (stereo not given)	68%
CC1=C(C(=O)OCC(C)C)C(/C=C/c2ccccc2)N2C(=O)CCSC2=N1 (stereo not given)	104%
CCCCn1c(SCc2ccccn2)nc2cc(S(=O)(=O)N(C)C)ccc21	106%
CC(c1cccnc1)N(C(=O)Nc1ccc(Cl)cc1)C1CCCCC1 (stereo not given)	97%
Cc1cc(C(F)(F)F)n2ncc(-c3cccc(Br)c3)c2n1	88.9%
N#Cc1ccc(NC(=O)COCC(=O)NCc2ccco2)cc1	86.9%
CCOC(=O)C1CCN(C(=O)CCS(=O)(=O)c2ccc3c(c2)CC(C)N3C(=O)CC)CC1 (stereo not given)	92.5%
CCN1\N=C(\C(=O)OC2CCOC2=O)C3=CC=CC=C3C1=O (stereo not given)	101%
CSc1nc2nc(C)cc(C(F)(F)F)n2n1	109%
CCCCc1nnc(NC(=O)COc2ccccc2-c2ccccc2)s1	100%
CCC(C)N1CCN(C(=O)CN(C)S(=O)(=O)c2ccc3c(c2)c(=O)n(C)c(=O)n3C)CC1 (stereo not given)	106%

SMILES	growth
CCc1c(C)nc2nc(NCc3cc(Br)ccc3OC)nn2c1O	91.6%
COC(=O)[C@H](CCSC)NC(=O)Nc1ccc(N2CCC(C)CC2)c(Cl)c1	86.4%
CCOC(=O)C(Sc1nnc2ccccn12)c1ccccc1 (stereo not given)	106%
Cn1cc(S(=O)(=O)N2CCCC2)cc1C(=O)OC(c1cc(F)cc(F)c1)C(F)(F)F (stereo not given)	98.5%
COc1cccc(-c2nc(NCCO)c3ccccc3n2)c1	98.6%
CCOC(=O)N1CCN(C(=O)CNS(=O)(=O)c2ccc(Cl)c(C(F)(F)F)c2)CC1	72.7%
Cc1cc(C)n(CCC(=O)NCCN2CCN(c3cc(Cl)ccc3C)CC2)n1	102%
CCN(C(=O)c1cccc2c1SCCC2=O)c1cc(Cl)ccc1OC	111%
CCOC(=O)c1ccc(CSc2nc[nH]n2)o1	101%
COc1ccc(NC(=O)c2cccnc2O)cc1N1CCCCC1=O	77.2%
COc1cccc(OC)c1C(=O)OCC(=O)NC(=O)NCc1ccccc1	90.4%
CCOc1ccc(CC(=O)Nc2ccc3nc(NC(C)=O)sc3c2)cc1OCC	114%
CC(C)(C)c1ccc2oc(=O)n(C(=O)COc3ccc(F)cc3)c2c1	103%
CCn1c(CN2CCCCCC2=O)nnc1SCC(=O)NCC(C)C	99.7%
O=C(COC(=O)C1CCN(C(=O)Nc2ccccc2)CC1)c1ccc(Cl)s1	100%
CC(C)CCNC(=O)c1cc2n(n1)CC(C)(C(=O)NCc1ccc(F)cc1)N(C)C2=O (stereo not given)	90.2%
CCOC(=O)c1c(C)[nH]c(C(=O)OCC(=O)N2CCSC2c2ccccc2F)c1C (stereo not given)	105%
CC(C)(C)c1cc(NC(=O)CSc2nnc(NCCc3cccs3)s2)on1	99.8%
CCOC(=O)c1c(S(=O)(=O)Nc2ccc(C)cn2)c(C)n(C)c1C	100%
CCOC(=O)\C1=C(/CN(CC)CC)N(C)C(=O)NC1C2=CC=CC=C2 (stereo not given)	88%

Two of these compounds in a different format.
SMILES | growth
CCc1cc2c(SC(C(N)=O)c3ccc(F)cc3)ncnc2s1 (stereo not given) | 95.1%
COc1cccc(OC)c1C(=O)OCC(=O)NC(=O)NCc1ccccc1 | 90.4%
